Assay results reported in patent publication US20170072041A1 (OHIO STATE INNOVATION FOUNDATION, published 2017).
Results are given in words; binding and its absence hold for the method and conditions named. Some entries that bind do so weakly or less than the wild type. Sequences can lack the tags named with a protein.

Assays:
[1] = target: canine DNase X on the cell surface (canine primary macrophages, DH82 cells) (canine); experiment: immunofluorescence of canine primary macrophages and DH82 cells, 30 min, not permeabilised
[2] = target: canine DNase X on the cell surface (canine primary macrophages, DH82 cells) (canine); experiment: immunofluorescence, deconvolution microscopy, not permeabilised

B1: rEtpE-C (recombinant C-terminal region of EtpE/ECH1038, residues 1656-1963, C-terminal histidine-tagged fusion protein) (ligand)
chain: ELLSLVGGHRNASSNNANNGRSLSQGIRYKITFKISFAQNYFPVDEIIKLQQDANNMEYGVHGVHRTDIIALWSYISYASSKSKWLFKRYQSFAGLLFEIGAWGKCTSAERVFFTSMNRYSEKLPLKVYNFIRKITTGDFARKFSGMQSLYTYKQRVYDYVMHCVLRGGLGGECSDMTLREISNELHKLKQEIYSNYDVFRDLGITNGQQEVLLLINVMMLNYAMSDLLVSTTQVNSMLADVRSSLSRTAHCLPYGTVSQLQRSVSHMKYGEYSNYRASVVALWACISCLASFNDDMEPLIKLMLEGD
notes: Used renatured on membrane or Ni matrix, or coated on 0.5 um latex beads; also called rEtpE-C-coated beads; not shown: C-terminal histidine tag from pET33b(+)
Q: Which results are given for B1?
A: binding [1]: binds; binding [2]: binds
